Measurements: article doi:10.1101/2023.03.23.534032
No constants are given. Whether binding was seen depends on the method and setting. Some entries that bind do so weakly or less than the wild type. For some assays here: Tags and fused reporters may be left off the sequences shown. Each block holds one molecule with its values, some of them ahead of it.

By UniProt entry, the sequences of proteins in these tests, tags left out. Residues count along the entry.
UniProt Q96HA1: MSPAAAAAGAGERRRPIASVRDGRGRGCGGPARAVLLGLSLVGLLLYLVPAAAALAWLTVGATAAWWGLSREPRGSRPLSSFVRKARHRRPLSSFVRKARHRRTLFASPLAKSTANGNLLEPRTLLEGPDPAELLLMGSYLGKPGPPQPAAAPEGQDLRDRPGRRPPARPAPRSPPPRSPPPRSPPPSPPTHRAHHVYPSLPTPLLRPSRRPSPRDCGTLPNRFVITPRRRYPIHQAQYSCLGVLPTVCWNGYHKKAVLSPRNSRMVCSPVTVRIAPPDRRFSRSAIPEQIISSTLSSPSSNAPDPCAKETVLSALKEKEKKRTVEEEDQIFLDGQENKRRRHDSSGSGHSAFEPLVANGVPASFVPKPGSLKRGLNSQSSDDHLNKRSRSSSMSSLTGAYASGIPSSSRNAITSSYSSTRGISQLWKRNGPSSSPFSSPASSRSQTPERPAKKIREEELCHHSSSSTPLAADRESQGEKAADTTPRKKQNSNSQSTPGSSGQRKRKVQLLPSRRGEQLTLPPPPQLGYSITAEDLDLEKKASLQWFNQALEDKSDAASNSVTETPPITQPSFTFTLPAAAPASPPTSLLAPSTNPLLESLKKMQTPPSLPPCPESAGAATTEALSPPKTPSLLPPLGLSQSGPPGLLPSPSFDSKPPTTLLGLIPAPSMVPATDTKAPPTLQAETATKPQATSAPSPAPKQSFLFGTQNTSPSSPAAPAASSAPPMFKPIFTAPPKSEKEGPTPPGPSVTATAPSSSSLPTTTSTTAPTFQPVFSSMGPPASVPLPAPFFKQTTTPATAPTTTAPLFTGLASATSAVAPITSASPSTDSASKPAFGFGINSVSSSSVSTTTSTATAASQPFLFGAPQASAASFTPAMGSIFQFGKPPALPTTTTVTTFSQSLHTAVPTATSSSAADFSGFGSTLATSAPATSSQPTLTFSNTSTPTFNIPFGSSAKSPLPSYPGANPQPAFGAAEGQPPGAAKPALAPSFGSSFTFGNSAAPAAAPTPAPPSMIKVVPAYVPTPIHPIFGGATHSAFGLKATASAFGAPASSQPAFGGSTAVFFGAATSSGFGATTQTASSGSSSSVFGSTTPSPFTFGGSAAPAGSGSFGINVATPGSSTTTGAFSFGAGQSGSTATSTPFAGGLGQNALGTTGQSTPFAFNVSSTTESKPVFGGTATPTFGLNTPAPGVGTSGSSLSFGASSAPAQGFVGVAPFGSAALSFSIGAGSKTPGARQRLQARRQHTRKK
UniProt P35658, residues 1210-2090: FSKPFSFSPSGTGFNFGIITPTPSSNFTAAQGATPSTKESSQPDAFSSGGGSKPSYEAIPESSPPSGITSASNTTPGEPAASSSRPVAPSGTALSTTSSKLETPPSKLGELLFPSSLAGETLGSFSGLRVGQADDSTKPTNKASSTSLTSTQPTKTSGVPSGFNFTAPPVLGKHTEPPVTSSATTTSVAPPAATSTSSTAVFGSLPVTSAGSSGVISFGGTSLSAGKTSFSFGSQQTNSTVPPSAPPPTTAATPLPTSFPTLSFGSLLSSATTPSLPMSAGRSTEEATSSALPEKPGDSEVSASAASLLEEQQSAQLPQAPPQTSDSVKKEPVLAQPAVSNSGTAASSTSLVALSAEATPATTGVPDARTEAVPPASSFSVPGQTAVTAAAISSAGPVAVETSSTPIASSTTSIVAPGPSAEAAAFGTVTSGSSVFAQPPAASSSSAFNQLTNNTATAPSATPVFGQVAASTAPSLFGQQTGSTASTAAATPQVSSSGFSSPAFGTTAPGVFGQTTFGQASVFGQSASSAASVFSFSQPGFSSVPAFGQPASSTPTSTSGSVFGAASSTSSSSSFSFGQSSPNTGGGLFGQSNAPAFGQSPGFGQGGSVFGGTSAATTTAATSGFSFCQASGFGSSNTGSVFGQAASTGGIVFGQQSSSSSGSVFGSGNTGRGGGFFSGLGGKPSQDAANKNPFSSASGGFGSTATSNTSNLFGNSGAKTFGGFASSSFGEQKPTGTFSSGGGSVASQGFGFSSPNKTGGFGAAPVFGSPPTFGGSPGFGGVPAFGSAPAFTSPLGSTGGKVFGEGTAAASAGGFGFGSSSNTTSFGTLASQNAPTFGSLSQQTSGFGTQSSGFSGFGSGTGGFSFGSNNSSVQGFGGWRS
UniProt P52948, residues 1-499: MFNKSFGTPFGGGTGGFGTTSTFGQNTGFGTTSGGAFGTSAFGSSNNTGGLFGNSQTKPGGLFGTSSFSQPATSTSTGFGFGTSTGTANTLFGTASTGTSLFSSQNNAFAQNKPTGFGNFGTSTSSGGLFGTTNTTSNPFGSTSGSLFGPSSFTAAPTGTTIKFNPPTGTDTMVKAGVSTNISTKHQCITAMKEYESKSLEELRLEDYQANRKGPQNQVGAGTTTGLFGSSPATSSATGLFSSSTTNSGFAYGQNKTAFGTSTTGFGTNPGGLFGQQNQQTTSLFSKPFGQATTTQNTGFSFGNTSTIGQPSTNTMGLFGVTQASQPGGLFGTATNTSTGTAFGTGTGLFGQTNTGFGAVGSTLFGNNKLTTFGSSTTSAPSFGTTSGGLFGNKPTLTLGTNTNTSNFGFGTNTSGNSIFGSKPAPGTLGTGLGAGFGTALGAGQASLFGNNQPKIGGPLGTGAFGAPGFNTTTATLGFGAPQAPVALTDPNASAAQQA

What was measured:
Experiment in all cases: fluorescence fluctuation spectroscopy
GFP-Pom121 (human) = GFP-Pom121 (human) (UniProt Q96HA1)
[1] = target: GFP-Nup214 FG-domain (Nup214 1210-2090) (human) (UniProt P35658)
[2] = target: GFP-Nup98 FG-domain (Nup98 1-499) (human) (UniProt P52948)
[3] = target: T1, GFP-Nup58 (human), Q9BVL2; conditions: remark: other sources report otherwise
T1 chain: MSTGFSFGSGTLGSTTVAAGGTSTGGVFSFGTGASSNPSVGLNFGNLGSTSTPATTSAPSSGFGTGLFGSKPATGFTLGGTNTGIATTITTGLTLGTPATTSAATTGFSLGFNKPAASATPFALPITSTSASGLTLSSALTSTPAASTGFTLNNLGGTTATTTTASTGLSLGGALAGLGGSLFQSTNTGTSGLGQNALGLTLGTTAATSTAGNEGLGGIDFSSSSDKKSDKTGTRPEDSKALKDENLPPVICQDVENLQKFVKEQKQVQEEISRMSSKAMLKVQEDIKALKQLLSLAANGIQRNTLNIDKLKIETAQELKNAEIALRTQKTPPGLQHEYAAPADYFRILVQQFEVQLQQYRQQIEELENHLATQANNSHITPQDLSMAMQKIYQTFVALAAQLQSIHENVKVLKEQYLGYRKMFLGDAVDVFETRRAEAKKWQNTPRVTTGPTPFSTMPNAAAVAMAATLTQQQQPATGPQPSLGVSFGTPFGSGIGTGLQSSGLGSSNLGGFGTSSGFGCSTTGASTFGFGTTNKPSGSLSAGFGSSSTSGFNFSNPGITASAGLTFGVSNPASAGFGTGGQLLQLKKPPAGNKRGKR

GFP-Nup42 (human) = GFP-Nup42 (human) (UniProt O15504)

Molecule: GFP-Nup214 FG-domain (Nup214 1210-2090) (from UniProt P35658 1210-2090) (domain or fragment)
- binding [1]: no binding

Molecule: GFP-Nup98 FG-domain (Nup98 1-499) (from UniProt P52948 1-499) (domain or fragment)
- binding [2]: binds

B2: GFP-Nup42 (protein, UniProt O15504 1-423)
chain: MAICQFFLQGRCRFGDRCWNEHPGARGAGGGRQQPQQQPSGNNRRGWNTTSQRYSNVIQPSSFSKSTPWGGSRDQEKPYFSSFDSGASTNRKEGFGLSENPFASLSPDEQKDEKKLLEGIVKDMEVWESSGQWMFSVYSPVKKKPNISGFTDISPEELRLEYHNFLTSNNLQSYLNSVQRLINQWRNRVNELKSLNISTKVALLSDVKDGVNQAAPAFGFGSSQAATFMSPGFPVNNSSSDNAQNFSFKTNSGFAAASSGSPAGFGSSPAFGAAASTSSGISTSAPAFGFGKPEVTSAASFSFKSPAASSFGSPGFSGLPASLATGPVRAPVAPAFGGGSSVAGFGSPGSHSHTAFSKPSSDTFGNSSISTSLSASSSIIATDNVLFTPRDKLTVEELEQFQSKKFTLGKIPLKPPPLELLNV
- binding (GFP-Nup42 (human)): binds

The remaining lines, values ahead:

- binding (GFP-Pom121 (human)): no binding
Molecule: GFP-Pom121 (from UniProt Q96HA1 1-1249)

- binding [3]: no binding
B1: GFP-Nup58, Q9BVL2 1-599 (protein)
chain: T1 chain
